From publication PMC3655187

Target: PaAG (Platanus acerifolia AGAMOUS), protein encoded by PaAG-1 (Platanus acerifolia) (UniProt K9UTE4)
Assay: two-hybrid; GAL4 system in yeast strain AH109; bait in pGBKT7 (GAL4 binding domain), prey in pGADT7-Rec (GAL4 activation domain); co-transformed cells tested on selective SD medium without leucine, tryptophan, histidine and adenine

binding: binds
Substance: PaAP3 (the APETALA3 ortholog in P. acerifolia) (from UniProt A4UTT8)

Results are given in words; binding and its absence hold for the method and conditions named. Binding calls can cover weak binding; strength is not graded here.
